Data as given in patent publication US7129198B1, “Use of benzotriazole UV absorbers” (Ciba Specialty Chemicals Corporation, priority 1999, dated 2006).

Test: Demonstration of substantivity: UV absorber taken up by human hair from aqueous solution
Settings: 10 mmol/l aqueous solution, 15 minutes

SMILES: CC[N+](C)(CC)CCCNC(=O)CCc1cc(-n2nc3ccccc3n2)c(O)c(C(C)(C)C)c1 [compound of formula (109)]
- mg of UV absorber per g of hair (at pH 5.5, damaged (bleached) human hair): 26 (at pH 5.5; damaged hair) mg of UV absorber per g of hair
- mg of UV absorber per g of hair (at pH 5.5, undamaged mid-blonde human hair): 2 (at pH 5.5; undamaged hair) mg of UV absorber per g of hair
- mg of UV absorber per g of hair (at pH 9.5, damaged (bleached) human hair): 31 (at pH 9.5; damaged hair) mg of UV absorber per g of hair
- mg of UV absorber per g of hair (at pH 9.5, undamaged mid-blonde human hair): 3 (at pH 9.5; undamaged hair) mg of UV absorber per g of hair
